Test results as given in the supplement of paper PMC5949888.
Most values lie at the floor of the assay. Slopes are relative: functional sequences can read slightly below zero.

Each substance was assayed on Saccharomyces cerevisiae PS128 hsf1 delta, HSF1(1-493) fusion (assay: growth estimate (transactivation domain function in HSF1 fusion, heat-shock survival) (a.u. (slope of normalised read count over time)); higher = stronger growth at 37°C, i.e. more transactivation activity). Details: library: random library.
Procedure: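 Random 60-nt DNA library encoding peptides of up to 20 aa, fused to the C-terminus of yeast HSF1 residues 1-493 (C-terminal TAD deleted) and expressed from the native HSF1 promoter on a CEN plasmid in hsf1-deleted S. cerevisiae PS128. Cells were selected at 37°C on -trp 5-FOA plates for 0, 2, 4, 6 and 8 days and amplicons were sequenced. Growth estimate is the slope of a robust linear fit of total-sum-normalised read counts (normalised to the first time point) over time, using at least 2 replicates. Sequences are classed functional (TAD activity) above a threshold of -0.13, set from stop-codon control sequences.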
For ASTSTQWDRMRPSPEVQNVG, the growth estimate was < -0.25. In the case of ASVARAIGDHF, the growth estimate is reported as < -0.25. ASVAYRNVGGVSAG was tested, and the growth estimate was < -0.25. With ASVGLWVEDWAQDPEQLSGQ the growth estimate was < -0.25. In the case of ASVKYGEDRL, the growth estimate is reported as < -0.25. In the case of ATCDSNTKGGGLRPTAPLAQ, the growth estimate is reported as < -0.25. With ATCNTR the growth estimate was < -0.25. ATDLLKSIHLVFTDSWSPSG was tested, and the growth estimate was < -0.25. ATFGGNNVLIENVGVKPSCI was tested, and the growth estimate was < -0.25. ATFPHQITRWALTASFR was tested, and the growth estimate was < -0.25. In the case of ATGPGRGQEATIWRTGIGCH, the growth estimate is reported as < -0.25. For ATGSALLRC, the growth estimate was < -0.25. ATIPRRTKFRTHGPLPESCP was tested, and the growth estimate was < -0.25. For ATKNVLLDGHISYHLAARYH, the growth estimate was < -0.25. With ATLIVVIQATSSHGGP the growth estimate was < -0.25. With ATLRHSRSETTADRPHQPGM the growth estimate was < -0.25. For ATLRLKMWGKTIRASGTT, the growth estimate was < -0.25. ATLRYASPFFRVPCIHLVNL was tested, and the growth estimate was -0.243. In the case of ATM, the growth estimate is reported as < -0.25. With ATMLYLRDDSWTLSYSMLS the growth estimate was -0.237. With ATPGNQSIRAQYRCEKRGVQ the growth estimate was < -0.25. In the case of ATPICCQHGV, the growth estimate is reported as < -0.25. In the case of ATPLGCGSRGGRERALSNHA, the growth estimate is reported as < -0.25. ATPYCSATHRYDSTSQDSHS was tested, and the growth estimate was < -0.25. ATPYGVGGPKAGI was tested, and the growth estimate was < -0.25. For ATRCQLGRYVVPSAYKEGGV, the growth estimate was -0.246. With ATRDEQGSGDVDCLTVAGRI the growth estimate was < -0.25. With ATRESGPRF the growth estimate was < -0.25. ATRLKVGCWLTQYEPSTSLA was tested, and the growth estimate was < -0.25. For ATRYQAGLYKSSHYPRTMGV, the growth estimate was < -0.25. ATSQRDRSPSVTAKSSEALW was tested, and the growth estimate was < -0.25. In the case of ATSVWDLKPGRVDKTRHQTS, the growth estimate is reported as < -0.25. In the case of ATTSLYALLLALHFVDFIIT, the growth estimate is reported as < -0.25. With ATVCIPDLNFGPILCS the growth estimate was < -0.25. ATVEE was tested, and the growth estimate was < -0.25. ATVPGPPPLLDLLRPRRVSG was tested, and the growth estimate was < -0.25. For ATVYIADHSQDSDSFDPVAS, the growth estimate was < -0.25. In the case of ATWGPQVLPSVAPGATVLR, the growth estimate is reported as < -0.25. With ATWHMRTLPSGGHTGVILDP the growth estimate was < -0.25. For AVA, the growth estimate was < -0.25. For AVAEWHLLRGTTFRTGVWPL, the growth estimate was < -0.25. In the case of AVCVESKFQDGTKSADSSHG, the growth estimate is reported as < -0.25. For AVEYASQRSIVRPLGHSTVT, the growth estimate was < -0.25. For AVFCAATGYSDSP, the growth estimate was < -0.25. AVFSLKRQLLGSIPGRDQEV was tested, and the growth estimate was -0.246. With AVGDRRT the growth estimate was < -0.25. AVGLMGRGPCTFSLWWLSFG was tested, and the growth estimate was < -0.25. In the case of AVGRGTKGA, the growth estimate is reported as -0.243. AVHIRFRRTTIVCSVAC was tested, and the growth estimate was < -0.25. For AVILS, the growth estimate was < -0.25. AVINH was tested, and the growth estimate was < -0.25. In the case of AVIRCKELLERSRMGANGTR, the growth estimate is reported as < -0.25. Work on AVKTQAANTEREMKIVGLDR yielded a growth estimate of -0.247. In the case of AVKVDQ, the growth estimate is reported as < -0.25. With AVLCGFPSQRVKQSLSRK the growth estimate was < -0.25. In the case of AVLQQRGHSFEAGARHSRRV, the growth estimate is reported as < -0.25. For AVMRSVRGWCSGSVRSHRQL, the growth estimate was < -0.25. AVPDPGRTVNRPWLNIEYGQ was tested, and the growth estimate was < -0.25. With AVPFVAIRLFLWS the growth estimate was < -0.25. AVPLWDV was tested, and the growth estimate was < -0.25. For AVPRFIAAPRKAPEGGSWLG, the growth estimate was < -0.25. AVQLVGQSSSAAPAGADVIS gave a growth estimate of -0.245. In the case of AVRFRESRVGH, the growth estimate is reported as < -0.251. With AVRIRGSLATSSLVE the growth estimate was < -0.25. AVRKKTSKTRYSVVSFLERE was tested, and the growth estimate was < -0.25. With AVTDARRGQGVQLWTGRTEL the growth estimate was < -0.25. With AVTESSTAGALCAGPTIFAP the growth estimate was < -0.25. With AVTFIVR the growth estimate was < -0.25. For AVVGRKCYSRGMVQRYIMLV, the growth estimate was < -0.25. For AVVY, the growth estimate was < -0.25. AVYSGDLGG was tested, and the growth estimate was < -0.25. In the case of AWAGQGVKMWSMARF, the growth estimate is reported as < -0.25. For AWAIISGGNVCKNGMGVPHL, the growth estimate was < -0.25. For AWCLTEVHYSSKFLPDMHHA, the growth estimate was < -0.25. AWFFKPRVVVTKGGPRPEHA was tested, and the growth estimate was < -0.25. For AWGQLGLQNAGQESALTPNE, the growth estimate was < -0.25. With AWLLRPRRG the growth estimate was < -0.25. With AWLRVR the growth estimate was < -0.25. With AWRSAEDNGSQLC the growth estimate was < -0.25. With AWSIYSGVRRHDASSPGSGD the growth estimate was < -0.25. AWSSVGKVY was tested, and the growth estimate was < -0.25. In the case of AWTSSGTGASSDSHSKKSRE, the growth estimate is reported as < -0.25. In the case of AYDGANRNSWSWCSVL, the growth estimate is reported as < -0.25. For AYDQSFDI, the growth estimate was < -0.25. For AYGRLGWLTAVSHGVPSGAG, the growth estimate was < -0.25. For AYGSVRG, the growth estimate was < -0.25. For AYHRSVLCGRRESYSNI, the growth estimate was < -0.25. In the case of AYIITGIVRISVLADAHAGP, the growth estimate is reported as < -0.25. AYKEFLTWHLLVPRPPIY was tested, and the growth estimate was < -0.25. For AYLMGRSETPGWPQTTVPQT, the growth estimate was < -0.25. For AYLVGLRKAVSSLNPNSLSC, the growth estimate was < -0.25. For AYLYEGGPHVGYFRLGRKTC, the growth estimate was < -0.25. For AYPRRPESWQNIFGRTRDLC, the growth estimate was < -0.25. With AYQLGV the growth estimate was < -0.25. In the case of AYQSCGRLKLYVAARARIIR, the growth estimate is reported as < -0.25. For AYRVKHKTTKCQRGTPLNGP, the growth estimate was < -0.25. With AYSRYKGK the growth estimate was -0.246. With AYTGRHGHTTW the growth estimate was < -0.25. For AYTWLPMWVDQRVPVRGMLR, the growth estimate was < -0.25. In the case of AYVLFSIENSLLGDTSGEPR, the growth estimate is reported as < -0.25. For AYWGIAFPPASTFF, the growth estimate was < -0.25. AYWGLAT was tested, and the growth estimate was < -0.25. In the case of AYYSSPAGFERDPTGSRCSA, the growth estimate is reported as < -0.25. AYYTSADEKTMLRSSSWGTS was tested, and the growth estimate was < -0.25. With CAAA the growth estimate was < -0.25. With CAD the growth estimate was < -0.25. CAFSELTGKLNCRRPSPMPY was tested, and the growth estimate was < -0.25. CALRTRLASRCTWVCDCVGE was tested, and the growth estimate was < -0.25. CAPRRGPPHMVILTAQAPRP was tested, and the growth estimate was < -0.25. CARADGTRSICATDESRSAM was tested, and the growth estimate was < -0.25. In the case of CARAKQRTKG, the growth estimate is reported as < -0.25. With CARQHPVRRGLSTV the growth estimate was < -0.25. For CASNYTGLDAVT, the growth estimate was < -0.25. For CATAFSSLHRVRR, the growth estimate was < -0.25. CAVVSGLYIDWLNVDPGQEG was tested, and the growth estimate was < -0.25. With CAWAVIKGSIRNVVPHVMVG the growth estimate was < -0.25. In the case of CAYRYL, the growth estimate is reported as < -0.25. In the case of CCISWPEARNTSAVQSARYT, the growth estimate is reported as < -0.25. With CCKSAHK the growth estimate was < -0.25. For CCLHVASATVVLHTVTLPLS, the growth estimate was < -0.25. With CCLRISRRVSHARIINLQ the growth estimate was < -0.25. In the case of CCNKEKHQDRRARTFSDLAE, the growth estimate is reported as < -0.25. CCPANNLDSGMGGQYEAPYA was tested, and the growth estimate was -0.231. With CCPAQDYLCESGI the growth estimate was < -0.25. With CCRGAGIT the growth estimate was < -0.25. CCSCERSLYVGGRSHINYTV was tested, and the growth estimate was < -0.25. For CCSDGLADVKPNYSA, the growth estimate was < -0.25. In the case of CCSHLVSL, the growth estimate is reported as < -0.25. With CCSPAH the growth estimate was < -0.25. CCSPMPRRHRRGTQDVKLIF was tested, and the growth estimate was < -0.25. CCSRRVVERTCRSDPKWSKR was tested, and the growth estimate was < -0.25. CCV was tested, and the growth estimate was < -0.25. For CCVFPTYLKRR, the growth estimate was < -0.25. In the case of CCVLASDQGRCMVNQAHAAL, the growth estimate is reported as < -0.25. In the case of CCWCARAALQPD, the growth estimate is reported as < -0.25. CCWTSRGPSPLLRIPKMVDK was tested, and the growth estimate was < -0.25. With CDALST the growth estimate was < -0.25. With CDAYASSQRSSGRKPNLLM the growth estimate was < -0.25. With CDCLLAGDSTSD the growth estimate was < -0.25. With CDNSEYNV the growth estimate was < -0.25. For CDQ, the growth estimate was < -0.25. CDRDSV was tested, and the growth estimate was < -0.25.
